Data as given in patent US12351591B2, “KRas inhibitors” (ELI LILLY AND COMPANY, priority 2022, dated 2025).
Some of these results come from one statement about several compounds together.

Amino acid sequences for entries named in this document (tags omitted). Residues count along the entry.
UniProt P01116, 1-188 isoform P01116-2 G12D: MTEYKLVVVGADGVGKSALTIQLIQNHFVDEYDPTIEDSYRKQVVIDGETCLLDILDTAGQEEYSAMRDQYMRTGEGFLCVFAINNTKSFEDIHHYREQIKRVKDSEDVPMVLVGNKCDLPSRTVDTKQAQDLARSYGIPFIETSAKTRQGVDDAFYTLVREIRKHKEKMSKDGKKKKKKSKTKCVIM

Target: T1, KRas G12D (Homo sapiens, UniProt P01116, G12D)
T1 construct: host or cells: PANC-1
Experiment: PANC-1 Cellular Active RAS GTPase ELISA (KRas G12D Mutation)
Assay type: cell-based
Conditions: PANC-1 cells, 2 hours; read-out: relative IC50, inhibition of constitutive RAS GTPase activity (KRas G12D mutant)

Question: Which IC50 does the source give for Cc1cnc(-c2c3c(c4c(N5C6CCC5CN(CC5COC5)C6)nc(OC[C@@]56CCCN5C[C@H](F)C6)nc4c2F)COC3)c2c(C#N)c(N)sc12 [Example 134, 2-Amino-4-[5-fluoro-3-[[(2R,8S)-2-fluoro-1,2,3,5,6,7-hexahydropyrrolizin-8-yl]methoxy]-1-[3-(oxetan-3-ylmethyl)-3,8-diazabicyclo[3.2.1]octan-8-yl]-7,9-dihydrofuro[3,4-f]quinazolin-6-yl]-7-methyl-thieno[3,2-c]pyridine-3-carbonitrile] here?
Answer: Its IC50 is less than 100 nM.

Question: With CN1CC2CC(C1)N2c1nc(OC[C@H]2CCCO2)nc2c(F)c(-c3c(F)ccc4sc(N)c(C#N)c34)c3c(c12)COC3 (single isomer, unassigned) [Example 154] as the compound, how does the IC50 read?
Answer: Its IC50 is less than 100 nM.

Question: How did the IC50 turn out when CN(C)C(=O)CCN1CC2CCC(C1)N2c1nc(OC[C@@]23CCCN2C[C@H](F)C3)nc2c(F)c(-c3ncc(F)c4sc(N)c(C#N)c34)c3c(c12)COC3 [Example 250, 3-[8-[6-(2-Amino-3-cyano-7-fluoro-thieno[3,2-c]pyridin-4-yl)-5-fluoro-3-[[(2R,8S)-2-fluoro-1,2,3,5,6,7-hexahydropyrrolizin-8-yl]methoxy]-7,9-dihydrofuro[3,4-f]quinazolin-1-yl]-3,8-diazabicyclo[3.2.1]octan-3-yl]-N,N-dimethyl-propanamide] was run?
Answer: The IC50 was less than 100 nM.

Question: With CN(C)CCOc1nc(N2C3CCC2CNC3)c2c3c(c(-c4ccc(F)c5sc(N)c(C#N)c45)c(Cl)c2n1)COC3 (single isomer, unassigned) [Example 17, 2-Amino-4-[5-chloro-1-(3,8-diazabicyclo[3.2.1]octan-8-yl)-3-[2-(dimethylamino)ethoxy]-7,9-dihydrofuro[3,4-f]quinazolin-6-yl]-7-fluoro-benzothiophene-3-carbonitrile] as the compound, how does the IC50 read?
Answer: The IC50 was less than 100 nM.

Question: CN1CC2CC(C1)N2c1nc(OC[C@@]23CCCN2C[C@H](F)C3)nc2c(F)c(-c3nccc4sc(N)c(C#N)c34)c3c(c12)COC3 [Example 52, 2-Amino-4-[5-fluoro-3-[[(2R,8S)-2-fluoro-1,2,3,5,6,7-hexahydropyrrolizin-8-yl]methoxy]-1-(3-methyl-3,6-diazabicyclo[3.1.1]heptan-6-yl)-7,9-dihydrofuro[3,4-f]quinazolin-6-yl]thieno[3,2-c]pyridine-3-carbonitrile] was tested. Which IC50 did it give?
Answer: Its IC50 is less than 100 nM.

Question: Which IC50 does the source give for CCN1CC2CCC(C1)N2c1nc(OC[C@@]23CCCN2C[C@H](F)C3)nc2c(F)c(-c3cccc4sc(N)c(C#N)c34)c3c(c12)COC3 [Example 25, 2-Amino-4-[1-(3-ethyl-3,8-diazabicyclo[3.2.1]octan-8-yl)-5-fluoro-3-[[(2R,8S)-2-fluoro-1,2,3,5,6,7-hexahydropyrrolizin-8-yl]methoxy]-7,9-dihydrofuro[3,4-f]quinazolin-6-yl]benzothiophene-3-carbonitrile] here?
Answer: The IC50 was less than 100 nM.

Question: How did the IC50 turn out when CN1C[C@H](F)C[C@H]1COc1nc(N2C3CCC2CN(CCCO)C3)c2c3c(c(-c4ncc(F)c5sc(N)c(C#N)c45)c(F)c2n1)COC3 [Example 332, 2-Amino-7-fluoro-4-[5-fluoro-3-[[(2S,4R)-4-fluoro-1-methyl-pyrrolidin-2-yl]methoxy]-1-[3-(3-hydroxypropyl)-3,8-diazabicyclo[3.2.1]octan-8-yl]-7,9-dihydrofuro[3,4-f]quinazolin-6-yl]thieno[3,2-c]pyridine-3-carbonitrile] was run?
Answer: The IC50 was less than 100 nM.

Question: How did the IC50 turn out when CN1CC2CCC(C1)N2c1nc(OC[C@@]23CCCN2C[C@H](F)C3)nc2c(F)c(-c3ccc(F)c4oc(N)c(C#N)c34)c3c(c12)COC3 [Example 136, 2-Amino-7-fluoro-4-[5-fluoro-3-[[(2R,8S)-2-fluoro-1,2,3,5,6,7-hexahydropyrrolizin-8-yl]methoxy]-1-(3-methyl-3,8-diazabicyclo[3.2.1]octan-8-yl)-7,9-dihydrofuro[3,4-f]quinazolin-6-yl]benzofuran-3-carbonitrile] was run?
Answer: The IC50 was less than 100 nM.

Question: With N#Cc1c(N)sc2c(F)ccc(-c3c4c(c5c(N6C[C@@H]7NC[C@H]6[C@H]7F)ncnc5c3F)COC4)c12 [Example 47, 2-Amino-7-fluoro-4-[5-fluoro-1-[(1S,4S,7S)-7-fluoro-2,5-diazabicyclo[2.2.1]heptan-2-yl]-7,9-dihydrofuro[3,4-f]quinazolin-6-yl]benzothiophene-3-carbonitrile] as the compound, how does the IC50 read?
Answer: The IC50 was less than 100 nM.

Question: How did the IC50 turn out when COCCCN1CC2CC(C1)N2c1nc(OC[C@@]23CCCN2C[C@H](F)C3)nc2c(F)c(-c3ncc(F)c4sc(N)c(C#N)c34)c3c(c12)COC3 [Example 344, 2-Amino-7-fluoro-4-[5-fluoro-3-[[(2R,8S)-2-fluoro-1,2,3,5,6,7-hexahydropyrrolizin-8-yl]methoxy]-1-[3-(3-methoxypropyl)-3,6-diazabicyclo[3.1.1]heptan-6-yl]-7,9-dihydrofuro[3,4-f]quinazolin-6-yl]thieno[3,2-c]pyridine-3-carbonitrile] was run?
Answer: Its IC50 is less than 100 nM.

Question: Which IC50 does the source give for N#Cc1c(N)sc2ccc(F)c(-c3c4c(c5c(N6C7CCC6CN(CC6CC6CO)C7)ncnc5c3F)COC4)c12 (single isomer, unassigned) [Example 157, 2-Amino-5-fluoro-4-[5-fluoro-1-[3-[[2-(hydroxymethyl)cyclopropyl]methyl]-3,8-diazabicyclo[3.2.1]octan-8-yl]-7,9-dihydrofuro[3,4-f]quinazolin-6-yl]benzothiophene-3-carbonitrile] here?
Answer: Its IC50 is less than 100 nM.

Question: Which IC50 does the source give for N#Cc1c(N)sc2c(F)ccc(-c3c4c(c5c(N6C7CCC6CN(CC6COC6)C7)nc(OC[C@@]67CCCN6C[C@H](F)C7)nc5c3F)COC4)c12 [Example 104, 2-Amino-7-fluoro-4-[5-fluoro-3-[[(2R,8S)-2-fluoro-1,2,3,5,6,7-hexahydropyrrolizin-8-yl]methoxy]-1-[3-(oxetan-3-ylmethyl)-3,8-diazabicyclo[3.2.1]octan-8-yl]-7,9-dihydrofuro[3,4-f]quinazolin-6-yl]benzothiophene-3-carbonitrile] here?
Answer: Its IC50 is less than 100 nM.

Question: How did the IC50 turn out when CN1CCOC[C@H]1COc1ccc2c3c(c(-c4ccc(F)c5sc(N)c(C#N)c45)c(Cl)c2n1)COC3 (single isomer, unassigned; isomer 1) [Example 34] was run?
Answer: Its IC50 is less than 100 nM.

Question: CN1CC2CC(C1)N2c1nc(OC[C@@H]2CCCN2CCO)nc2c(F)c(-c3c(F)ccc4sc(N)c(C#N)c34)c3c(c12)COC3 (single isomer, unassigned) [Example 155] was tested. Which IC50 did it give?
Answer: The IC50 was less than 100 nM.

Question: For CN1CCC(F)(F)C(COc2nc(N3C4CCC3CN(CCCO)C4)c3c4c(c(-c5ncc(F)c6sc(N)c(C#N)c56)c(F)c3n2)COC4)C1 (single isomer, unassigned) [Example 328, 2-Amino-4-[3-[(4,4-difluoro-1-methyl-3-piperidyl)methoxy]-5-fluoro-1-[3-(3-hydroxypropyl)-3,8-diazabicyclo[3.2.1]octan-8-yl]-7,9-dihydrofuro[3,4-f]quinazolin-6-yl]-7-fluoro-thieno[3,2-c]pyridine-3-carbonitrile], which IC50 is on record?
Answer: Its IC50 is less than 100 nM.

Question: CN1CC2CC(C1)N2c1ncnc2c(F)c(-c3c(F)ccc4sc(N)c(C#N)c34)c3c(c12)COC3 (single isomer, unassigned) [Example 53, 2-Amino-5-fluoro-4-[5-fluoro-1-(3-methyl-3,6-diazabicyclo[3.1.1]heptan-6-yl)-7,9-dihydrofuro[3,4-f]quinazolin-6-yl]benzothiophene-3-carbonitrile] was tested. Which IC50 did it give?
Answer: The IC50 was less than 100 nM.

Question: Which IC50 does the source give for C[C@@H](O)CN1CC2CCC(C1)N2c1nc(OC[C@@H]2C[C@@H](O)CN2C)nc2c(F)c(-c3c(F)ccc4sc(N)c(C#N)c34)c3c(c12)COC3 (single isomer, unassigned) [Example 184] here?
Answer: The IC50 was less than 100 nM.

Question: How did the IC50 turn out when CN1CC2CCC(C1)N2c1nc(OC[C@@]23CCCN2C[C@H](F)C3)nc2c(F)c(-c3nccc4sc(N)c(C#N)c34)c3c(c12)COC3 [Example 51, 2-Amino-4-[5-fluoro-3-[[(2R,8S)-2-fluoro-1,2,3,5,6,7-hexahydropyrrolizin-8-yl]methoxy]-1-(3-methyl-3,8-diazabicyclo[3.2.1]octan-8-yl)-7,9-dihydrofuro[3,4-f]quinazolin-6-yl]thieno[3,2-c]pyridine-3-carbonitrile] was run?
Answer: The IC50 was less than 100 nM.

Question: How did the IC50 turn out when CN(C)CCOc1nc(N2C3CCC2CN(CCCO)C3)c2c3c(c(-c4c(F)ccc5sc(N)c(C#N)c45)c(F)c2n1)COC3 (single isomer, unassigned) [Example 144, 2-Amino-4-[3-[2-(dimethylamino)ethoxy]-5-fluoro-1-[3-(3-hydroxypropyl)-3,8-diazabicyclo[3.2.1]octan-8-yl]-7,9-dihydrofuro[3,4-f]quinazolin-6-yl]-5-fluoro-benzothiophene-3-carbonitrile] was run?
Answer: The IC50 was less than 100 nM.

Question: With C[C@@H](O)CN1CC2CCC(C1)N2c1nc(OC[C@@H]2CCCN2C)nc2c(F)c(-c3ncc(F)c4sc(N)c(C#N)c34)c3c(c12)COC3 [Example 245, 2-Amino-7-fluoro-4-[5-fluoro-1-[3-[(2R)-2-hydroxypropyl]-3,8-diazabicyclo[3.2.1]octan-8-yl]-3-[[(2S)-1-methylpyrrolidin-2-yl]methoxy]-7,9-dihydrofuro[3,4-f]quinazolin-6-yl]thieno[3,2-c]pyridine-3-carbonitrile] as the compound, how does the IC50 read?
Answer: Its IC50 is less than 100 nM.

Question: Which IC50 does the source give for N#Cc1c(N)sc2c(F)ccc(-c3c4c(c5c(N6C7CCC6CNC7)nc(OC[C@H]6COCCO6)nc5c3Cl)COC4)c12 [Example 7, 2-Amino-4-[5-chloro-1-(3,8-diazabicyclo[3.2.1]octan-8-yl)-3-[[(2R)-1,4-dioxan-2-yl]methoxy]-7,9-dihydrofuro[3,4-f]quinazolin-6-yl]-7-fluoro-benzothiophene-3-carbonitrile] here?
Answer: Its IC50 is less than 100 nM.

Question: How did the IC50 turn out when COCCCN1CC2CCC(C1)N2c1nc(OC[C@@H]2CCCN2C)nc2c(F)c(-c3ncc(F)c4sc(N)c(C#N)c34)c3c(c12)COC3 [Example 236, 2-Amino-7-fluoro-4-[5-fluoro-1-[3-(3-methoxypropyl)-3,8-diazabicyclo[3.2.1]octan-8-yl]-3-[[(2S)-1-methylpyrrolidin-2-yl]methoxy]-7,9-dihydrofuro[3,4-f]quinazolin-6-yl]thieno[3,2-c]pyridine-3-carbonitrile] was run?
Answer: The IC50 was less than 100 nM.
